From patent publication US20090263341A1, “SOFT ANTICHOLINERGIC ESTERS” (priority 2005, published 2009)

Tested on: guinea pig tracheal rings
Assay: Guinea pig trachea assay, pA2 against carbachol (Schild plot)
Method: Changes in isometric tension were measured by a force displacement transducer (Experimetria, Budapest, Hungary) coupled to a Watanabe recorder. Cumulative concentration-effect curves were constructed to carbachol in the absence or presence of the antagonists. In each animal two preparations were used as time control (i.e., repeated carbachol curves in the absence of any antagonist) the remaining two preparations were used to test responses in the presence of two different concentrations of the antagonist.
Antagonists were added to the organ bath 30 min prior to commencement of the agonist concentration versus effect curves. Schild plots were constructed for the antagonists against carbachol and pA2 values as well as slope estimates were obtained.
Responses were measured as changes in isometric tension and calculated as a percentage of the maximum response attained in the initial concentration-response curve. Determination of antagonist potencies was done by constructing Schild double logarithmic plot of log (DR-1) versus −log M concentrations of the antagonist, and the slope of the plot was computed. […] Statistical significance was assessed by ANOVA followed by Dunnett test.

Row | Structure (SMILES) | Schild slope ± S.E., Trachea | Schild slope ± S.E., Trachea (against carbachol)
1 | CC(C)[N+]1(C)[C@@H]2CC[C@H]1CC(OC(=O)C(CO)c1ccccc1)C2.[Br-] (stereo partly shown) [Ipratropium Br, ipratropium bromide] | 1.11 ± 0.14^a | 
2 | CCOC(=O)C[N@+]1(C)CC[C@@H](OC(=O)[C@](O)(c2ccccc2)C2CCCC2)C1 [Compound (m), (2R,1′R,3′R) 3-(2-cyclopentyl-2-phenyl-2-hydroxyacetoxy)-1-(ethoxycarbonylmethyl)-1-methylpyrrolidinium bromide] |  | 1.54 ± 0.18^a
3 | C[N+]1(C)CCC(OC(=O)C(O)(c2ccccc2)C2CCCC2)C1.[Br-] (mixture of isomers) [glycopyrrolate, 3-(2-cyclopentyl-2-phenyl-2-hydroxyacetoxy)-1,1-dimethylpyrrolidinium bromide, reference compound] | 1.53 ± 0.07^a | 
4 | CCOC(=O)C[N+]1(C)[C@@H]2C[C@@H](OC(=O)C(O)(c3cccs3)c3cccs3)C[C@H]1[C@@H]1O[C@@H]12 (stereo partly drawn) [Compound (w), 6β,7β-epoxy-3,8-hydroxy-8-ethoxycarbonylmethyl-8-methyl-1αH,5αH-tropaniun bromide, di-2-thienylglycolate] | 1.03 ± 0.08^a | 

Like-named read-outs stand apart in the source and are kept apart here. Marks after values point to notes of the source that are not given here.
